Patent US5374713A, “Peptide inhibitors of phospholipase A2 purified from inflammatory sites” (Teijin Limited, priority 1990, dated 1994)
Not every detail of the peptide structures is certain; ends, links or a residue may be inferred. Ends that are not written are not given here.

Protein sequences, listed by entry. Tags and fused reporters are not part of them. Residues count along the entry.
UniProt P00592, 23-146: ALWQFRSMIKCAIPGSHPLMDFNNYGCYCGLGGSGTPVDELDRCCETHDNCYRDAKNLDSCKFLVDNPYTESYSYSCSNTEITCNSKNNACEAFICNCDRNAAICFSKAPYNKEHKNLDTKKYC

Key:
[1] = molecular target: T1, phospholipase A2 from porcine pancreas (Sus scrofa, UniProt P00592); test: Determination of inhibitory activity against phospholipase A2 (porcine pancreas); assay type: biochemical; settings: phospholipase A2 from porcine pancreas (Boehringer Manheim Co.)
T1 construct: porcine pancreas (Boehringer Manheim Co.); purchased Boehringer Manheim Co; host or cells: porcine pancreas

[2] = molecular target: T2, phospholipase A2 from human inflammatory sites (the joint fluid from patients with rheumatoid arthritis) (Homo sapiens, UniProt P14555); test: Determination of inhibitory activity against phospholipase A2 (human inflammatory sites); assay type: biochemical
T2 construct: from human inflammatory sites (the joint fluid from patients with rheumatoid arthritis); from tissue; host or cells: joint fluid from patients with rheumatoid arthritis
T2 sequence (P14555 21-144): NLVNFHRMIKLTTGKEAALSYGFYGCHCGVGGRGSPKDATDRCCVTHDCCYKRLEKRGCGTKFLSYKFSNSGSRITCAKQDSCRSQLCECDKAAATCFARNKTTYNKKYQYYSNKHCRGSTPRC
Procedure: The activity-measuring system was prepared by adding distilled water to 100 mM Tris-HCl (ph 9.0), 4 mM calcium chloride, 0.1 mM phosphatidylethanolamine (2,000 dpm/nmol), and 10 μl sample to adjust the total volume to 240 μl, and finally 10 μl of 0.1 ng/μ1 phospholipase A2 was added. The phospholipases A2 used were from human inflammatory sites (the joint fluid from patients with rheumatoid arthritis) (Hara et al., J. Biochem., 104, 326-328, 1988), rat inflammatory sites (Chang et al., J. Biochem., 102, 147-154, 1987), and porcine pancreas (Boehringer Manheim Co.). Phosphatidylethanolamine was purified from Escherichia coli cultured in a medium to which acetic acid was added.
The reactions were conducted at 37° C. with stirring for 10 minutes. The termination of the reaction and the extraction of fatty acids generated were carried out by the Dole's method (Dole et al., J. Biol. Chem., 235, 2595-2599, 1960) and the extracted fatty acid was determined with a scintillation counter.
The lyophilyzed sample obtained in Example 1 was dissolved again in 50% acetone-0.1% trifluoroacetic acid to adjust the concentration to 10 mg/ml. The solution was further diluted stepwise with the same buffer and the inhibitory activity of phospholipase A2 from inflammatory sites was determined at individual concentrations.

Sequence: QKDAPDHQELNLDVSLQLPSR
- inhibitory activity against phospholipase A2 from porcine pancreas [1]: no inhibitory activity
- amount of the protein needed for 50% inhibition of 1 ng enzyme activity [2]: about 300 ng
